# Some of these results come from one statement about several compounds together.
# System: Nrf2
# Experiment: Nrf2 functional cell-based assay (DisoveRx), luminescence
# Settings: U2OS cells
# Protocol: In order to confirm the pharmacological activity of the compounds synthesized according to Examples 1 to 18 of the present invention, the effects of the synthesized derivatives on inducing the activity of Nrf2, a major regulator of the defense against oxidative stress, were evaluated by constructing an Nrf2 functional cell-based assay (DisoveRx). Specifically, U2OS cells were used, and after the cell pellet was released with CP 0 reagent, the cells were loaded in an amount of 80 μL into a 96-well plate at a density of 1.5×10^4 cells/well and incubated for 24 hours. The compounds synthesized according to Examples 1 to 18 were diluted 3 times in DMSO at 7 different concentrations to prepare a stock solution. 10 μL. of each compound solution was mixed with 90 μL of CP 0 and added in an amount of 20 μL to each well of the 96-well plate, and each experiment was repeated three times. […] Substrate reagents 1 and 2 were added to the cell assay buffer and mixed, and then 50 μL of the substrate reagent was added to a 96-well plate per well, wrapped in foil, and incubated for 1 hour. Thereafter, the luminescence value was measured at all wavelengths and at integration time of 100 ms using a luminescence spectrophotometer (Molecular Devices). […] The results are shown in Table 5 below, and the efficacy of the compounds was compared as a percentage with respect to the sulforaphane-treated group. As another control group, a chalcone derivative, VSC2 ((F)-1-(2-((2-methoxyphenyl)sulfonyl)vinyl)-2-chlorobenzene, Woo et al., J. Med. Chem., 2014, 57:1473-1487), which has a parent structure similar to that of the present invention, and which has been confirmed to induce activation of Nrf2 through the structural changes of Keap1, was used.
row,Structure (SMILES),Effect of inducing Nrf2 activity (in words)
1,"O=S(=O)(/C=C/c1ncccc1Cl)c1cccc(F)c1 [Compound 5, (E)-3-chloro-2-(2-(3-fluorophenylsulfonyl)vinyl)pyridine]",superior effect on Nrf2 activation compared to sulforaphane and VSC2
2,"O=S(=O)(/C=C/c1ncccc1Cl)c1cccc(Cl)c1 [Compound 11, (E)-3-chloro-2-(2-(3-chlorophenylsulfonyl)vinyl)pyridine]",superior effect on Nrf2 activation compared to sulforaphane and VSC2
3,"O=S(=O)(/C=C/c1ncccc1F)c1ccc(Cl)cc1 [Compound 9, (E)-2-(2-(4-chlorophenylsulfonyl)vinyl)-3-fluoropyridine]",superior effect on Nrf2 activation compared to sulforaphane and VSC2
4,"O=S(=O)(/C=C/c1ncccc1F)c1cccc(Cl)c1 [Compound 8, (E)-2-(2-(3-chlorophenylsulfonyl)vinyl)-3-fluoropyridine]",superior effect on Nrf2 activation compared to sulforaphane and VSC2
5,"O=S(=O)(/C=C/c1ncccc1Cl)c1ccccc1Cl [Compound 10, (E)-3-chloro-2-(2-(2-chlorophenylsulfonyl)vinyl)pyridine]",superior effect on Nrf2 activation compared to sulforaphane and VSC2
6,"O=S(=O)(/C=C/c1ncccc1Cl)c1ccc(F)cc1 [Compound 6, (E)-3-chloro-2-(2-(4-fluorophenylsulfonyl)vinyl)pyridine]",superior effect on Nrf2 activation compared to sulforaphane and VSC2
7,"O=S(=O)(/C=C/c1ncccc1Cl)c1ccccc1F [Compound 4, (E)-3-chloro-2-(2-(2-fluorophenylsulfonyl)vinyl)pyridine]",superior effect on Nrf2 activation compared to sulforaphane and VSC2
8,"O=S(=O)(/C=C/c1ncccc1Cl)c1ccc(Cl)cc1 [Compound 12, (E)-3-chloro-2-(2-(4-chlorophenylsulfonyl)vinyl)pyridine]",superior effect on Nrf2 activation compared to sulforaphane and VSC2
9,"O=S(=O)(/C=C/c1cccnc1Cl)c1ccccc1Cl [Compound 14, (E)-2-chloro-3-(2-(2-chlorophenylsulfonyl)vinyl)pyridine]",superior effect on Nrf2 activation compared to sulforaphane and VSC2
10,"O=S(=O)(/C=C/c1ncccc1F)c1ccccc1F [Compound 1, (E)-3-fluoro-2-(2-(2-fluorophenylsulfonyl)vinyl)pyridine]",superior effect on Nrf2 activation compared to sulforaphane and VSC2
11,"O=S(=O)(/C=C/c1ncccc1F)c1ccccc1Cl [Compound 7, (E)-2-(2-(2-chlorophenylsulfonyl)vinyl)-3-fluoropyridine]",superior effect on Nrf2 activation compared to sulforaphane and VSC2
12,"O=S(=O)(/C=C/c1cccc(Cl)n1)c1ccccc1Cl [Compound 13, (E)-2-chloro-6-(2-(2-chlorophenylsulfonyl)vinyl)pyridine]",superior effect on Nrf2 activation compared to sulforaphane and VSC2

# Reference: patent US12234207B2, “Halo-(3-(phenylsulfonyl)prop-1-enyl)pyridine derivative and use thereof” (Cureverse Incorporated, priority 2018, dated 2025)
